Experimental data published in paper PMC12428237 (Foods, 2025).
End groups of sequences in plain letters are not given here.

Experiment: peptide made by a vendor (Fmoc solid-phase peptide synthesis)
Settings: whole synthesis

Sequence: DEEENDQVK
- final HPLC purity: >98%
